The text below walks through data of article PMC13278974, “Nucleophagy removes cytotoxic trapped PARP1” (Nature Cell Biology, 2026).

By UniProt entry, the sequences of proteins in these tests, tags left out. Where a name states a change or a piece, a line headed by the entry shows the natural chain unless it says otherwise.
UniProt P09874: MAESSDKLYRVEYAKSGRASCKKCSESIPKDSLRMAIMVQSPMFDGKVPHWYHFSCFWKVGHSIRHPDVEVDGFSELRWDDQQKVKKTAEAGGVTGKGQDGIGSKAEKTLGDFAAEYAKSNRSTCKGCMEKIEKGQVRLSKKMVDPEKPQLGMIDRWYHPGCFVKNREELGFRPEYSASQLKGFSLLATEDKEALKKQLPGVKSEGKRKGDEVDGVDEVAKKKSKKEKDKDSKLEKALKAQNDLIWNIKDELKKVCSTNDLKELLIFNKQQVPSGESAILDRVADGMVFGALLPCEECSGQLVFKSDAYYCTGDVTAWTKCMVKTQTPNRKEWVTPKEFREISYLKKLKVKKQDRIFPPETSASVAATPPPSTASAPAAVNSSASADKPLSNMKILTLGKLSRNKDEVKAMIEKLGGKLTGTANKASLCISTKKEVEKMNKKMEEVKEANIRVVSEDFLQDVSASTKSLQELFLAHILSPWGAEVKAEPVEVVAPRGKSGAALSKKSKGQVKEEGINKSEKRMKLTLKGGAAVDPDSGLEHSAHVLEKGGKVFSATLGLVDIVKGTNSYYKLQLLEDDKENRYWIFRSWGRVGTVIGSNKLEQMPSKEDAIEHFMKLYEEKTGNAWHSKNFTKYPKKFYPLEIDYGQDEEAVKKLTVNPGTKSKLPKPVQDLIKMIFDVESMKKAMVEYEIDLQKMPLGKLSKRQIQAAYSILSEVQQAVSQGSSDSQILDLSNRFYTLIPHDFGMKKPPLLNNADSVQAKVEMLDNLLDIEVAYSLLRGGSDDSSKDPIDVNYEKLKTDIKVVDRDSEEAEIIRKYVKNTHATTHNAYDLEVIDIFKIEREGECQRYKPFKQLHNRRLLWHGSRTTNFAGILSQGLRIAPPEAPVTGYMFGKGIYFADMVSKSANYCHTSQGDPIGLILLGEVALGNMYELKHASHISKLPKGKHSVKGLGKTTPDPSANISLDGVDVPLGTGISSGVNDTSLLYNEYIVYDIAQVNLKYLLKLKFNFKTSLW
UniProt Q9Y6I9: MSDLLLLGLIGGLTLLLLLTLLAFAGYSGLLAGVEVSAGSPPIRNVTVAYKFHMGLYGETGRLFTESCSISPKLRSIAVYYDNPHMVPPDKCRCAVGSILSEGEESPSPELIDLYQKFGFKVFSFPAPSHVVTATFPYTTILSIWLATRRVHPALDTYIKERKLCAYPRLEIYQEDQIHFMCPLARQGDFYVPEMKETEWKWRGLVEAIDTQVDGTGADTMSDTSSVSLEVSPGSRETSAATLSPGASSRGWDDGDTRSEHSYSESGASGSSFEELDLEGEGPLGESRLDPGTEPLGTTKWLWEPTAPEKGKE

These are yes or no findings as the source states them, for the method shown. Binding seen in cells or lysates may run through a third protein. A result given as binding can be weak or reduced; the word gives no strength.

In the test the target is PARP1–GFP stably expressed in HeLa cells (UniProt P09874). Put plainly: co-IP; PARP1–GFP captured on GFP-trap beads from the chromatin fraction of HeLa cells expressing TEX264 variants, after talazoparib and MMS for 3 h.

Take “TEX264–Δα-helix (TEX264 lacking the α-helix that follows the GyrI-like domain) (from UniProt Q9Y6I9)”: the binding result is “binds”.
